In publication PMC10881386:
These are yes or no findings as the source states them, for the method shown. Binding calls can cover weak binding; strength is not graded here.

Biological target: T1, Nup58(523–589) FG-domain fragment (BLI probe) (UniProt Q9BVL2)
T1 sequence (chain, biotin): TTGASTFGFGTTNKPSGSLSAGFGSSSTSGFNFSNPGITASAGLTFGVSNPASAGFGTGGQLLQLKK
Test: BLI; biotinylated, N-terminally Avi-tagged ligands immobilised on streptavidin tips (1 nm); analyte in solution; 20 mM Tris/HCl pH 8.0, 300 mM NaCl, 0.1% BSA, 0.02% Tween-20; OctetRED96; both purified

Q: For “CA-N57A mutant hexamers (HIV-1) (complex)”, which binding is on record?
A: binds
